# Measurements taken from PubChem BioAssay AID1688 (National Center for Advancing Translational Sciences (NCATS), 2009).
# In all, about 220,000 compounds went through this assay and about 2,400 (1.1%) were called active. Inconclusive results, whose numbers are uncertain, are shown with a selection of clear calls. Calls follow the shape of the dose curve; as a rule, active = well fitted inhibition curve with a large enough effect; inconclusive = small, poorly fitted or top-dose-only effect, or effect the other way; inactive = no such curve, though single readings can be large or run the other way. A potency beside an inconclusive call is a rough fit, not a confirmed value.
# Experiment: qHTS Multiplex Assay to Identify Dual Action Probes in a Cell Model of Huntington: Aggregate Formation (GFP); also: nearly all actives have a fitted effect of over 60% in size
# Conditions: PC12 HttQ103-GFP aggregates, Acumen cytometry, 40 h; activity change, negative = inhibition: at 46.1 µM (top of the series) unless noted
# Method in brief: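 PC12/HTTQ103-GFP, ecdysone-inducible; teb 100 nM; cpd qHTS titration; GFP aggregates read on laser cytometer, Ex 488/Em 500-530 nm.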
# % is scaled to controls: 0 for no effect and ±100 for the full control effect; potency is read from the fitted curve at half-maximal effect.
SMILES,Potency,"activity change, negative = inhibition"
O=C(CSc1nnc(-c2ccccc2O)o1)Oc1ccc(OCc2ccccc2)cc1,"inconclusive: 8.91 µM [inhibitor, partial curve]",–
O=C(c1ccccc1Nc1ccc(SC(F)F)cc1)N1CCCCCC1,"inconclusive: 22.4 µM [inhibitor, single point]",–
CC(C)Oc1cccc(C(=O)NC(=S)Nc2cccc(NC(=O)c3ccccc3Cl)c2)c1,–,inactive: 8.58%
Cc1cccc(Nc2nc(-c3ccncc3)cs2)c1,"inconclusive: 22.4 µM [inhibitor, partial curve]",–
CN(C)S(=O)(=O)c1ccc(Cl)c(NC(=O)CN2CCC(Cc3ccccc3)CC2)c1,"inconclusive: 35.5 µM [inhibitor, single point]",–
CC(C)(C)C(=O)Nc1cc(S(=O)(=O)Nc2ccc(Cl)cc2)ccc1Cl,"inconclusive: 15.8 µM [inhibitor, single point]",–
CC(C)Cc1cc(C(=O)Nc2ccc(F)cc2F)no1,–,inactive: -3.78%
C=C(C)CNC(=S)N1CCN(C(c2ccccc2)c2ccccc2)CC1,"inconclusive: 35.5 µM [inhibitor, single point]",–
Cn1nc(C(=O)NC2CCCCC2)c2ccccc2c1=O,"inconclusive: 2.82 µM [activator, full curve, poor fit]",–
CSc1ccccc1C(=O)C1CCCN(Cc2c(C)n(C)n(-c3ccccc3)c2=O)C1 (centres undefined),"inconclusive: 1.26 µM [inhibitor, single point]",–
O=C(/C=C/c1cccs1)c1cc(Br)ccc1OC(=O)N1CCOCC1,"inconclusive: 25.1 µM [inhibitor, single point]",–
COc1ccc(S(=O)(=O)c2cnc3ccccc3n2)cc1,"inconclusive: 10 µM [inhibitor, single point]",–
CC(/C=C/c1ccco1)=N/NC(=O)OC(C)(C)C,"inconclusive: 35.5 µM [activator, partial curve, poor fit]",–
CC(C)(C)c1cc(C(=O)NCc2ccccc2)ccn1,active: 11.2 µM,–
COc1ccc(/C=C2\SC(=S)N(N3C(=O)CCC3=O)C2=O)cc1O,–,inactive: 7.48%
CCOC(=O)c1cc(-c2cc(OC)c(OC)c(OC)c2)nc2c1c(=O)[nH]c(=O)n2Cc1ccccc1,"inconclusive: 2.51 µM [activator, full curve]",–
COc1ccc(NC(=S)Nc2ccc(N)c([N+](=O)[O-])c2)cc1,"inconclusive: 10 µM [activator, partial curve]",–
Cc1ccc(-c2cc(C(=O)N3CCN(c4ncccn4)CC3)c3cc(Br)ccc3n2)o1,"inconclusive: 31.6 µM [inhibitor, single point]",–
CC(C)NC(=O)NC(=O)COC(=O)c1ccccc1F,"inconclusive: 5.62 µM [inhibitor, single point]",–
CCC(=O)Nc1ccc(-c2ccc(NC(=O)CC)c(OC)c2)cc1OC,"inconclusive: 0.501 µM [activator, full curve, poor fit]",–
COc1ccc(S(=O)(=O)N2CC3CCCN3c3cc(C(F)(F)F)ccc32)cc1 (centres undefined),"inconclusive: 20 µM [inhibitor, single point]",–
CCc1ccc(/C=C2\CN(CC)Cc3c2nc2ccccc2c3C(=O)O)cc1,"inconclusive: 14.1 µM [inhibitor, single point]",–
CCCc1cc(=O)c2c(O)cccc2o1,–,inactive: 12.3% [at 9.22 µM]

SMILES,Potency,"activity change, negative = inhibition"
O=C(N/N=C/c1ccsc1)c1cc(-c2cccs2)nc2ccccc12,"inconclusive: 5.62 µM [inhibitor, full curve]",–
COCC(=O)c1[nH]c2ccccc2c1C,–,inactive: -11.8%
COc1cccc(C2/C(=C(\O)c3ccc4c(c3)OCO4)C(=O)C(=O)N2CCN(C)C)c1OC (centres undefined),–,inactive: 4.97%
COc1ccc(C(C(=O)Nc2ccc3c(c2)OCO3)N(C)C(=O)Cc2c[nH]c3ccccc23)cc1 (centres undefined),"inconclusive: 35.5 µM [inhibitor, single point]",–
COc1ccc(-n2ncc(Cl)c(Cl)c2=O)cc1,active: 3.98 µM,–
Cc1cc(C)cc(N=c2c([N+](=O)[O-])nn(-c3ccc(Cl)cc3)n2O)c1,"inconclusive: 35.5 µM [inhibitor, single point]",–
CCCCNC(=O)c1cc(-c2ccc(F)cc2)on1,"inconclusive: 3.98 µM [activator, single point]",–
CCN(c1ccccc1)S(=O)(=O)c1ccc(C(=O)Nc2nnc(CSC)o2)cc1,"inconclusive: 12.6 µM [inhibitor, single point]",–
CC(=O)c1ccc(NC(=O)c2ccn(C(=O)OCC(C)C)n2)cc1,–,inactive: -7.89%
COc1ccc(N2CCN(C(=O)C3CCC(Cn4c(=S)[nH]c5ccccc5c4=O)CC3)CC2)cc1 (centres undefined),"inconclusive: 10 µM [inhibitor, partial curve]",–
CSc1nc(C)cc(OCC(=O)N/N=C/c2ccccc2O)n1,"inconclusive: 22.4 µM [inhibitor, partial curve]",–
CN1CCN(S(=O)C23CC4CC(CC(C4)C2)C3)CC1 (centres undefined),"inconclusive: 0.0355 µM [inhibitor, full curve, poor fit]",–
CC(=O)c1cc(Cc2csc(C(C)=O)c2)cs1,–,inactive: -7.27%
Cc1cc(C)cc(-n2c(C)cc(/C=N/NC(=O)CN(c3c(C)cccc3C)S(C)(=O)=O)c2C)c1,"inconclusive: 2.82 µM [inhibitor, single point]",–
CCOC(=O)c1sc(NC(=O)C(CC)Sc2nnc3c4ccccc4n(C(C)C)c3n2)nc1C (centres undefined),"inconclusive: 5.62 µM [activator, partial curve]",–
C=CCn1c(COc2ccc(OC)cc2)nnc1SCn1nnc2ccccc2c1=O,"inconclusive: 14.1 µM [activator, single point]",–
CCOC(=O)c1ccccc1NC(=O)c1cn(CC)c2nc(C)ccc2c1=O,"inconclusive: 35.5 µM [inhibitor, single point]",–
CCc1cccc(Nc2c3c(nc4ncnn24)CCC3)c1,–,inactive: 6.79% [at 9.22 µM]
CC(C)(C)NC[C@@H](O)COc1ccccc1C1CCCC1,–,inactive: 9.65% [at 20.6 µM]
C=CCOc1c(Cl)cc(CNn2cn[nH]c2=S)cc1OC,"inconclusive: 3.98 µM [activator, partial curve, poor fit]",–
CC(=O)N(C)c1ccc(NC(=O)/C=C/c2ccccc2Cl)cc1,"inconclusive: 35.5 µM [inhibitor, single point]",–
COc1ccc(CCNC(=O)Cc2cccs2)cc1,–,inactive: -3.15%
O=C(NCc1ccncc1)Nc1ccccc1,"inconclusive: 5.62 µM [inhibitor, single point]",–

# Compounds shown so far with two or more sulfur atoms:
SMILES,Potency,"activity change, negative = inhibition"
COc1ccc(/C=C2\SC(=S)N(N3C(=O)CCC3=O)C2=O)cc1O,–,inactive: 7.48%
O=C(N/N=C/c1ccsc1)c1cc(-c2cccs2)nc2ccccc12,"inconclusive: 5.62 µM [inhibitor, full curve]",–
CCN(c1ccccc1)S(=O)(=O)c1ccc(C(=O)Nc2nnc(CSC)o2)cc1,"inconclusive: 12.6 µM [inhibitor, single point]",–
CC(=O)c1cc(Cc2csc(C(C)=O)c2)cs1,–,inactive: -7.27%
CCOC(=O)c1sc(NC(=O)C(CC)Sc2nnc3c4ccccc4n(C(C)C)c3n2)nc1C (centres undefined),"inconclusive: 5.62 µM [activator, partial curve]",–

# Next part:

SMILES,Potency,"activity change, negative = inhibition"
CCOC(=O)C(C)Sc1nc2c(c(-c3cccs3)c1C#N)CCC2 (centres undefined),–,inactive: 17.8%
O=C(O)/C=C/c1ccc(S(=O)(=O)N2CCN(CCN3C(=O)C4C5C=CC(C5)C4C3=O)CC2)cc1 (centres undefined),–,inactive: -18.1% [at 9.22 µM]
COc1ccccc1-c1ccc(Nc2ccc(C(=O)N3CCOCC3)cc2)nn1,"inconclusive: 11.2 µM [inhibitor, partial curve]",–
O=C(C1CCC(Cn2c(=S)[nH]c3ccccc3c2=O)CC1)N1CCN(c2ccccn2)CC1 (centres undefined),"inconclusive: 17.8 µM [inhibitor, single point]",–
CCOc1ccc(-n2c(-c3ccccc3)c[n+]3c2CCCCC3)cc1,"inconclusive: 0.562 µM [inhibitor, full curve, poor fit]",–
CCOc1ccccc1N1CN(Cc2ccccc2)CNC1=S,–,inactive: -10.6% [at 9.22 µM]
Cc1cc(N(C)C)c(C#N)c(NCc2ccccc2)n1,"inconclusive: 7.08 µM [activator, partial curve]",–
COC(=O)C1=C(C)OC(N)=C(C#N)C1c1ccc(OC)c(OC)c1OC (centres undefined),"inconclusive: 0.316 µM [inhibitor, full curve, poor fit]",–
CC(C)c1ccc(C(=O)NCc2ccc(Cl)cc2)cc1,–,inactive: -11%
O=C(NNC(=O)c1ccccc1[N+](=O)[O-])c1ccco1,"inconclusive: 0.112 µM [activator, full curve, poor fit]",–
Cn1c(C(=O)NC2CC2)cc2c(=O)n(C)c3ccccc3c21,–,inactive: -2.33%
CCCn1c(SCC(=O)Nc2ccc(OCC)cc2)nnc1C(C)C,–,inactive: -4.75%
COC(=O)c1cc(S(=O)(=O)Nc2ccsc2C(=O)OC)oc1C,–,inactive: 6.33% [at 9.22 µM]
O=C(Nc1ccc2c(c1)CCC2)c1ccccc1,"inconclusive: 14.1 µM [activator, single point]",–
O=C(CCc1ccccc1)NC(NC(=S)Nc1ccc(Br)cc1)C(Cl)(Cl)Cl (centres undefined),–,inactive: -23.8%
Cc1ccccc1OCC(=O)N/N=C/c1ccc([N+](=O)[O-])o1,"inconclusive: 17.8 µM [inhibitor, single point]",–
CCCc1nc2ccccc2c(=O)n1/N=C/c1ccccc1O,active: 10 µM,–
O=C(NCCc1ccc(Cl)cc1)C1CCC(=O)N1Cc1ccc(F)cc1 (centres undefined),–,inactive: -21%
CC(=O)c1c(C)[nH]c(C(=O)CSc2nnc(-c3ccco3)n2Cc2ccccc2)c1C,"inconclusive: 3.55 µM [inhibitor, partial curve]",–
Cc1ccc(NC2SC(=O)N(Cc3cccc(C(=O)O)c3)C2=O)cc1 (centres undefined),–,inactive: 11.2%
CCCC[n+]1ccn(C2=C([O-])c3ccccc3C(=O)/C2=N\S(=O)(=O)c2ccccc2)c1,"inconclusive: 17.8 µM [inhibitor, single point]",–
CCOC(=O)c1c(/N=C/N(C)C)sc(/C=N/Nc2ccccc2)c1-c1ccccc1Cl,"inconclusive: 35.5 µM [inhibitor, single point]",–
Cc1cc(C(=O)CSc2nnc(Nc3ccccc3F)s2)c(C)n1CC1CCCO1 (centres undefined),"inconclusive: 35.5 µM [inhibitor, single point]",–
